From PubChem BioAssay AID2685 (National Center for Advancing Translational Sciences (NCATS), 2010)
Out of some 320,000 compounds screened, about 2,100 (0.66%) were called active. Inconclusive means that the source gave no clear call. Such entries were picked first, then a sample of the others. The call rests on the fitted dose curve; in most records, active means well fitted inhibition curve with a large enough effect in the signal ratio, with a control signal flat (not every such curve was filed as active); inconclusive means small, poorly fitted or top-dose-only effect, or effect the other way, or a change in a side signal; inactive means flat fitted curve, though single readings scatter; the % refers to the signal ratio. Potencies of inconclusive entries are doubtful fits and often do not repeat.

experiment: qHTS Assay for Lipid Storage Modulators in Drosophila S3 Cells; conditions: BODIPY lipid droplet fluorescence, 18-24 h, cells fed with added oleic acid; lipid storage change, negative = inhibition: at 46.1 µM (top of the series) unless noted
Procedure, shortened: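 Laser-scanning cytometry quantifies lipid droplet accumulation (500–530 nm total intensity; droplet/cell object ratio) in oleic acid-fed (400 uM added) Drosophila S3 cells treated with a concentration series. 20 uM Triacsin C defined 100% inhibition.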
On the % scale 0 is the no-effect control and ±100 the full control effect; potency means the concentration at half of the fitted maximal effect.

Potency, active:
C1CCC(OCCN2CCN(CCOC3CCCCC3)CC2)CC1 25.9 µM

Potency, inconclusive:
Cc1ccc(-n2c(SCc3nc4ccccc4[nH]3)nnc2-c2ccncc2)cc1 0.0058 µM [activator, full curve, poor fit]
Cc1oc2c(c1C(=O)N1CCC(C)CC1)C(=O)c1ccccc1C2=O 20.6 µM [falling, single point]
C[C@@]12CCC=C[C@H]1[C@H](c1ccc3ccccc3c1Br)N(Cc1ccccc1)C2=O 14.6 µM [activator, single point]
COc1cccc(CCNC(=O)CCCC(=O)c2ccccc2)c1 0.231 µM [falling, full curve, poor fit]
CC(=O)OCCNC(=O)Cn1cnc2c1c(=O)n(C)c(=O)n2C 36.6 µM [falling, partial curve, poor fit]
COc1ccccc1N1CCN(CC(=O)c2c(C)[nH]c3ccccc23)CC1 5.17 µM [activator, partial curve]
CC1=NOC(=O)/C1=C/c1ccc(O)cc1 0.0073 µM [falling, full curve, poor fit]
Cc1cccc(C)c1OCc1cc(C(=O)NCC2COCCO2)no1 (configuration not stated) 4.61 µM [activator, full curve, poor fit]

Lipid storage change, negative = inhibition, inconclusive:
NC(=S)N=Nc1c(O)n(Cc2ccc(Br)cc2)c2ccccc12 -16.4%
CCN(CC)S(=O)(=O)c1cc(NC(=O)CCCOc2ccc(C(C)=O)cc2)ccc1C -31.6%
O=C(CNC(=O)c1ccccc1)NCc1nc2ccccc2[nH]1 27.5%
Cc1ccccc1Cc1n[nH]c(=S)n1N 4.01%
O=C(COC(=O)/C=C/c1ccccc1)NCc1cccs1 15.7%
CCN(CC(=O)NCc1ccc2c(c1)OCO2)S(=O)(=O)c1ccc(F)cc1 89.9%
O=C(COC(=O)c1cc([N+](=O)[O-])ccc1Cl)NC1CCCC1 -22.4%
Cc1snc(SCc2c(F)cccc2Cl)c1C#N 20.6%
Oc1ccc(N2CCN(Cc3cc4c(cc3Br)OCCO4)CC2)cc1 -28.7%
Cc1ccccc1C1CC(c2cccs2)=NN1S(C)(=O)=O (configuration not stated) 120%
CCCCn1c(N)c(N(CC(C)C)C(=O)c2ccc(C)o2)c(=O)[nH]c1=O 20.6%
COc1ccc(C=NCC2COc3ccccc3O2)cc1OC (configuration not stated) 4.22%

Six successive compounds out of the list so far:
Lipid storage change, negative = inhibition, inconclusive:
Cc1ccccc1Cc1n[nH]c(=S)n1N 4.01%
O=C(COC(=O)/C=C/c1ccccc1)NCc1cccs1 15.7%
CCN(CC(=O)NCc1ccc2c(c1)OCO2)S(=O)(=O)c1ccc(F)cc1 89.9%
O=C(COC(=O)c1cc([N+](=O)[O-])ccc1Cl)NC1CCCC1 -22.4%
Cc1snc(SCc2c(F)cccc2Cl)c1C#N 20.6%
Oc1ccc(N2CCN(Cc3cc4c(cc3Br)OCCO4)CC2)cc1 -28.7%

Following part.

outcome, inactive:
CS(=O)(=O)Oc1ccc(/C=C2\C(=N)N3N=C(CC(=O)N4CCOCC4)SC3=NC2=O)cc1Cl inactive [at 46.1 µM]
